Test results as given in PubChem BioAssay AID2685 (National Center for Advancing Translational Sciences (NCATS), 2010).
This is one part of the list. Further columns of the screen follow, without active or inactive calls. Compounds called inactive in the main read-out are mostly missing here. The note in brackets gives the kind of curve behind each potency; many fits are weak.

Assay: qHTS Assay for Lipid Storage Modulators in Drosophila S3 Cells;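 on cell number change: cells counted by Cell Tracker Red CMTPX staining in the red channel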
Conditions: BODIPY lipid droplet fluorescence, 18-24 h; for cell number change: measured here: cell count max response, cells fed with added oleic acid
Summary of the method: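 Drosophila S3 cells got compounds at several concentrations plus oleic acid (400 uM solution). Laser-scanning cytometry with 488 nm excitation read lipid droplets at 500-530 nm and cells at 575-640 nm. Percent activity was relative to 20 uM Triacsin C.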

[1] = measured here: cell number channel AC50, cells fed with added oleic acid
[2] = measured here: lipid fluorescence (Fed channel) AC50, cells fed with added oleic acid

SMILES | cell number change | AC50 [1] | AC50 [2]
O=C(NCCSCc1c(F)cccc1Cl)c1ccco1 | -38.4% | 9.2 µM [falling, partial curve, poor fit] | 32.6 µM [falling, single point]
COCCN(CCOC)C(=O)c1ccc(NS(=O)(=O)c2ccc3c(c2)OCCO3)cc1 | 13.6% | – | 32.6 µM [rising, single point]
COC(=O)c1cc(OC)c(OC)cc1NC(=S)N1CCN(c2ccccc2)CC1 | 104% | 1.46 µM [rising, partial curve] | 0.259 µM [rising, partial curve]
CCCOC(=O)c1ccc(NC(=O)c2cn(CC)c3nc(C)ccc3c2=O)cc1 | -7.89% | – | –
Cc1c(C(=O)NC(Cc2ccccc2)c2nc3ccccc3[nH]2)cccc1[N+](=O)[O-] (configuration not stated) | -3.2% | – | 23.1 µM [rising, partial curve]
NS(=O)(=O)c1ccc(N2CCOCC2)c(C(=O)NCCCSc2ccccc2)c1 | – | – | 14.6 µM [falling, partial curve, poor fit]
COc1ccc(CCNC(=O)CCCOc2cccc(C)c2C)cc1OC | – | – | 7.31 µM [falling, partial curve]
NS(=O)(=O)c1ccc(NC(=O)Cn2ncc3c2-c2ccccc2OC3)cc1 | -1.22% | 5.8 µM [falling, partial curve] | 1.03 µM [falling, full curve]
CC(C)Oc1ccc(C2NC(=O)c3ccccc3O2)cc1 (configuration not stated) | 20.2% | – | –
CCOC(=O)N1CCC(NC(=O)CC(NS(=O)(=O)c2ccc(Cl)cc2)c2ccco2)CC1 (configuration not stated) | – | – | 0.651 µM [rising, single point]
COc1ccc(NC(=O)Nc2nnc(Cc3ccccc3)s2)cc1 | -4.96% | – | –
CCc1nc2cc([N+](=O)[O-])c([N+](=O)[O-])cc2[nH]1 | 20.3% | – | 0.00461 µM [rising, full curve, poor fit]
COc1ccc(/C=C2\CCC(C3CCCC3)C2=O)cc1 (configuration not stated) | 12.8% | – | 29.1 µM [rising, single point]
COc1cccc(C=Nc2ccc3c(c2)OCCO3)c1O | 0.622% | 0.146 µM [falling, full curve, poor fit] | 6.51 µM [falling, single point]
C/C(=N\Nc1ccccc1[N+](=O)[O-])c1ccccc1O | – | – | 6.51 µM [falling, single point]
COc1ccccc1NC(=O)COC(=O)CC(C)(C)CC1=NS(=O)(=O)c2ccccc2N1 | – | – | 29.1 µM [falling, single point]
CN(CC(=O)Nc1cccc(F)c1)C(=O)CCc1nc2ccccc2c(=O)[nH]1 | 15.6% | – | 18.4 µM [rising, partial curve]
Cc1cc(C)n2nc(SCc3nnc(-c4ccc(F)cc4)o3)nc2n1 | 21.9% | 4.11 µM [rising, full curve, poor fit] | –
O=C(COC(=O)c1cc(Cl)cc(Cl)c1)NCCN1C(=O)CSC1=O | 39.1% | 9.2 µM [rising, partial curve] | 3.66 µM [rising, single point]
CN1C(=O)c2ccccc2C(C(=O)NCCCN2CCCC2=O)C1c1c[nH]c2ccccc12 (configuration not stated) | 33.1% | – | –

SMILES | cell number change | AC50 [1] | AC50 [2]
CCC1CSC(Nc2ccc(C(=O)/C=C/c3cccc(C)c3)cc2)=N1 (configuration not stated) | 17.4% | – | –
CC(C)(C)OC(=O)NCCc1nnc(SCc2ccccc2)o1 | 5.85% | 0.13 µM [rising, full curve, poor fit] | –
COc1ccc(/C=N\NC(=O)/C(=C\Nc2nccc(C)n2)NC(=O)c2ccccc2)cc1 | – | 0.58 µM [rising, partial curve] | –
Cc1oc(-c2ccccc2Cl)nc1CSCC(=O)O | – | – | 0.461 µM [falling, full curve]
CC(C)c1ccc(/C=C/C(=O)NC2CCCCC2)cc1 | -49.4% | 29.1 µM [falling, single point] | 23.1 µM [falling, single point]
CCc1cccc(CC)c1NC(=O)CSc1nnc(CCC(=O)O)c(=O)[nH]1 | 21.3% | – | –
Cc1ccc(NC(=O)CN(C)C(=O)c2ccccc2OCc2c(C)noc2C)cc1 | – | – | 0.58 µM [falling, single point]
CC(=O)N1CCc2cc(S(=O)(=O)NCCC(=O)NCCc3ccc(C)cc3)ccc21 | -8.79% | – | 2.59 µM [rising, full curve]
C=CCn1c(SCC(=O)NCc2ccccc2)nnc1-c1ccccc1O | -9.51% | – | 0.00461 µM [falling, full curve, poor fit]
NC[C@H]1O[C@H](O[C@H]2[C@H](O)[C@@H](O[C@H]3O[C@H](CO)[C@@H](O)[C@H](N)[C@H]3O)[C@H](N)C[C@@H]2N)[C@H](N)C[C@@H]1O | 16% | 0.0651 µM [rising, full curve, poor fit] | –
CC(C)(C)CC(C)(C)NC(=S)Nc1ccc2nc(-c3ccccn3)c(-c3ccccn3)nc2c1 | -11.4% | – | 1.46 µM [rising, partial curve, poor fit]
O=P(CO)(Cc1ccccc1)Cc1ccccc1 | 34.4% | 29.1 µM [rising, single point] | –
Cc1ccc(C2c3c(-c4ccccc4O)n[nH]c3C(=O)N2Cc2ccncc2)cc1 (configuration not stated) | 93.7% | 20.6 µM [rising, single point] | –
O=C(CCl)Nc1ccc(N=Nc2ccccc2)cc1 | – | – | 9.2 µM [falling, partial curve]
O=C(O)c1ccccc1C(=O)Nc1ccc(S(=O)(=O)NC2CCCCC2)cc1 | -1.31% | – | 0.013 µM [falling, full curve, poor fit]
COc1ccc(NC(=O)CC2C(=O)N(C)C(=S)N2CCc2ccccc2F)cc1 (configuration not stated) | – | – | 0.651 µM [rising, single point]
COc1cc(-c2cc(=O)c3ccccc3o2)ccc1O | -18.5% | – | 7.31 µM [falling, partial curve, poor fit]
Cc1cc(C)cc(N(C(=O)c2csnn2)C(C(=O)NC(C)(C)C)c2cccnc2)c1 (configuration not stated) | -21.6% | – | 1.46 µM [falling, partial curve, poor fit]
COC(=O)c1ccc(CNCC(=O)Nc2ccc(C(=O)OC)cc2)cc1 | 2.84% | – | 0.651 µM [falling, single point]
O=C(OCc1cc2ccccc2[nH]c1=O)c1ccc([N+](=O)[O-])cc1 | -25.8% | – | 29.1 µM [falling, single point]

A few values from the list.
CC(C)Oc1ccc(C2NC(=O)c3ccccc3O2)cc1 (configuration not stated) – cell number change: 20.2%
O=C(O)c1ccccc1C(=O)Nc1ccc(S(=O)(=O)NC2CCCCC2)cc1 – AC50 [2]: 0.013 µM [falling, full curve, poor fit]

Additional structures follow:

SMILES | cell number change | AC50 [1] | AC50 [2]
Cc1ccc(S(=O)(=O)N2CCN(C(=O)C(F)(F)F)C2c2ccc(N(C)C)cc2)cc1 (configuration not stated) | 12.8% | – | 1.64 µM [falling, partial curve, poor fit]
Cn1c(C(=O)NCCCN2CCc3ccccc3C2)cc2c(=O)n(C)c3ccccc3c21 | -74% | 18.4 µM [falling, single point] | 0.146 µM [rising, full curve, poor fit]
O=C(NNc1ccc(C2CCCCC2)cc1)C(O)(c1ccccc1)c1cccs1 (configuration not stated) | -42.3% | 18.4 µM [falling, single point] | 14.6 µM [falling, single point]
COc1ccc(NC(=O)N2CCN(c3cccc(C(F)(F)F)c3)CC2)cc1OC | 10.7% | – | 14.6 µM [falling, partial curve, poor fit]
CCOc1cc(/C=C2\CCn3c2nc2cc(Cl)ccc2c3=O)ccc1O | 32.8% | 0.651 µM [rising, full curve, poor fit] | 29.1 µM [falling, single point]
COc1ccc2cc(C(c3nnnn3C3CCCC3)N3CCc4ccccc4C3)c(=O)[nH]c2c1 (configuration not stated) | -1.75% | – | 29.1 µM [rising, single point]
CCNC(=O)c1ccc(NS(=O)(=O)c2ccc3[nH]c(=O)[nH]c3c2)cc1 | 0.54% | – | 0.58 µM [falling, single point]
O=C(O)C1(O)C[C@H](O)C(O)[C@@H](O)C1 (some centres not stated) | – | – | 0.58 µM [falling, single point]
CC(C)N=c1scc(-c2ccco2)n1/N=C/c1ccc(O)c(O)c1 | -42.9% | 6.51 µM [falling, partial curve] | 25.9 µM [falling, single point]
N#Cc1ccccc1S(=O)(=O)N1CCN(c2nc(-c3cccnc3)nc3ccccc23)CC1 | – | – | 18.4 µM [falling, partial curve]
O=C(C1CC(=O)N(c2ccc(F)cc2)C1)N1CCN(c2ccc(F)cc2)CC1 (configuration not stated) | -3.18% | – | 0.411 µM [falling, single point]
COc1ccc(-c2noc(COc3ccc(Cl)c(C)c3)n2)cc1 | -6.37% | – | –
CC(=C/C(=O)O)/C=C/c1cccs1 | 2.95% | – | 0.366 µM [falling, full curve]
O=S(=O)(c1ccc(SCc2ccc(Br)cc2)nc1)N1CCCCC1 | 125% | 0.731 µM [rising, full curve, poor fit] | –
COc1ccc(/C=N/NC(=O)c2ccccc2)cc1OS(=O)(=O)c1ccccc1 | – | – | 0.259 µM [rising, partial curve]
Cc1csc(=O)n1CC(=O)Nc1nc2ccccc2s1 | -9.4% | – | 29.1 µM [falling, single point]
CCOc1nc(SCCOc2ccc(C)cc2)nc(N(C)C)n1 | -34.3% | 16.4 µM [falling, single point] | 18.4 µM [falling, partial curve]
COCCNC(=O)c1cc(C(=O)CC(C)C)c[nH]1 | -44.5% | 29.1 µM [falling, single point] | –
